Assay results reported in US20230181581A1, “CIRCULATING B CELL SUBPOPULATIONS IN INDOLENT B CELL LYMPHOMA” (Alexion Pharmaceuticals, Inc., priority 2020, published 2023).

Tested on: patients with indolent B cell lymphoma (iNHL)
Experiment: Phase IIa study: clinical response (best response) to single agent cerdulatinib in r/r iNHL patients grouped by baseline B cell subsets
Type: in vivo, human
Details: 30 mg BID
Experimental: This example describes a phase IIa study designed to determine the safety, efficacy, pharmacokinetics, and pharmacodynamics of cerdulatinib at the selected phase II dose of 30 mg BID, dosed in 28 day cycles, in patients with r/r B or T cell malignancies.
Up to 50 patients were enrolled in 5 cohorts; aggressive lymphoma, iNHL, CLL/SLL, PTCL (all receiving single agent cerdulatinib), and iNHL with cerdulatinib in combination with anti-CD20 therapy. Patients remained on drug until discontinuation due to progressive disease (PD), adverse event (AE), withdrawal of consent (WC), or at the discretion of the treating physician.
Forty patients with iNHL were enrolled in a cohort receiving single agent cerdulatinib. From this cohort, 30 ml of whole blood was collected from each patient at pre-dose at baseline (C1), cycle 2 day 1 (C2), cycle 3 day 1 (C3), and cycle 6 day 1 (C6) in 10 ml mononuclear cell protection tubes (CPT tubes, BD Bioscience, San Jose, CA) and immediately centrifuged to separate mononuclear cells from plasma and red blood cells at each clinical site. At each time point, tubes were shipped for same day delivery to Caprion Biosciences, Montreal Canada, for preparation and live cell freezing of peripheral blood mononuclear cells (PBMC) by ficoll gradient centrifugation using standard procedures. Banked PBMC’s were stored at -80° C. until 5-8 patient samples through cycle 6 were obtained to enable batched flow cytometry analysis of B cell subsets for each patient over time.
A PCA analysis of the data was performed to identify subgroups of patients characterized by a common B cell phenotype. Subsequent analysis of the results of the PCA by hierarchical clustering was performed.

In the case of `CCS(=O)(=O)N1CCN(c2ccc(Nc3ncc(C(N)=O)c(NC4CC4)n3)cc2)CC1` [cerdulatinib, 4-(cyclopropylamino)-2-((4-(4-(ethylsulfonyl)piperazin-1-yl)phenyl)amino)pyrimidine-5-carboxamide], the “Best Response RM, percent of patients” value (G1 (N=9)) is reported as 33.3%, the “Best Response WD_MZL, percent of patients” value (G1 (N=9)) is reported as 11.1% and the “Best Response RM, percent of patients” value (G2 (N=16)) is reported as 12.5%. The “Best Response WD_MZL, percent of patients” value (G2 (N=16)) was 0 (0%), the “Best Response RM, percent of patients” value (G2 + G3 (N=29)) was 6.9% and the “Best Response WD_MZL, percent of patients” value (G2 + G3 (N=29)) was 0 (0%). The “Best Response RM, percent of patients” value (G3 (N=13)) was 0 (0%), the “Best Response WD_MZL, percent of patients” value (G3 (N=13)) was 0 (0%) and the “Best Response RM, percent of patients” value (Total (N=38)) was 13.2%. For the same compound, the “Best Response WD_MZL, percent of patients” value (Total (N=38)) was 2.6%.
